Assay results taken from the supplement of paper PMC10331698.
± gives the standard deviation of the averaged measurements. Most values lie at the level of the controls, where differences are scatter.

Legend:
Test in all cases: level (log10 ratio to DMSO vehicle control); higher = higher biomarker level / cell amount than vehicle control
[1] = compound: COC(=O)CCC(F)(F)C(F)(F)C(F)(F)C(F)(F)F [Methyl 2H,2H,3H,3H-perfluoroheptanoate]; conditions: 2200 nM; in DMSO
Procedure: (§1)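 BioMAP Diversity Plus panel of 12 human primary cell co-culture systems (3C, 4H, LPS, SAg, BT, BF4T, BE3C, CASM3C, HDF3CGF, KF3CT, MyoF, Mphg). Compounds were added 1 h before stimulation and left for 24 h (MyoF 48 h; BT 72 h for soluble read-outs or 6 d for IgG). Biomarkers were read by ELISA, cytotoxicity by SRB, PBMC viability and proliferation by Alamar Blue. Each well value was divided by the mean of 8 DMSO control wells on the same plate and log10 transformed; duplicate blinded samples were tested at 4 concentrations.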

Tetrafluorosuccinic acid = compound: O=C(O)C(F)(F)C(F)(F)C(=O)O [Tetrafluorosuccinic acid]; conditions: 2200 nM; in DMSO
Procedure: as §1

[2] = compound: O=S(=O)(O)C(F)(F)C(F)(F)OC(F)(F)C(F)(F)F [Perfluoro(2-ethoxyethane)sulfonic acid]; conditions: 2200 nM; in DMSO
Procedure: as §1

[3] = compound: C=C(C)C(=O)OCCC(F)(F)C(F)(F)C(F)(F)C(F)(F)C(F)(C(F)(F)F)C(F)(F)F [(Perfluoro-5-methylhexyl)ethyl 2-methylprop-2-enoate]; conditions: in DMSO
Procedure: as §1

Perfluoropinacol = compound: OC(C(F)(F)F)(C(F)(F)F)C(O)(C(F)(F)F)C(F)(F)F [Perfluoropinacol]; conditions: in DMSO
Procedure: as §1

Nonafluoropentanamide = compound: NC(=O)C(F)(F)C(F)(F)C(F)(F)C(F)(F)F [Nonafluoropentanamide]; conditions: 2200 nM; in DMSO
Procedure: as §1

[4] = compound: O=C(O)CCC(F)(F)C(F)(F)C(F)(F)C(F)(F)C(F)(F)F [2H,2H,3H,3H-Perfluorooctanoic acid]; conditions: 2200 nM; in DMSO
Procedure: as §1

[5] = compound: OCCC(F)(F)C(F)(F)C(F)(F)C(F)(F)F [4:2 Fluorotelomer alcohol]; conditions: 2200 nM; in DMSO
Procedure: as §1

[6] = compound: NS(=O)(=O)C(F)(F)C(F)(F)C(F)(F)C(F)(F)C(F)(F)C(F)(F)F [Perfluorohexanesulfonamide]; conditions: 2200 nM; in DMSO
Procedure: as §1

[7] = compound: O=C(O)C(F)(F)C(F)(F)C(F)(F)C(F)(F)C(F)(F)C(F)(F)C(F)(F)C(F)(F)Cl [9-Chloro-perfluorononanoic acid]; conditions: in DMSO
Procedure: as §1

[8] = compound: O=S(=O)(O)CCC(F)(F)C(F)(F)C(F)(F)C(F)(F)C(F)(F)C(F)(F)F [6:2 Fluorotelomer sulfonic acid]; conditions: in DMSO
Procedure: as §1

[9] = compound: C=C(C)C(=O)OCCC(F)(F)C(F)(F)C(F)(F)C(F)(F)C(F)(F)C(F)(F)C(F)(F)C(F)(F)F [8:2 Fluorotelomer methacrylate]; conditions: in DMSO
Procedure: as §1

Octafluoroadipamide = compound: NC(=O)C(F)(F)C(F)(F)C(F)(F)C(F)(F)C(N)=O [Octafluoroadipamide]; conditions: 2200 nM; in DMSO
Procedure: as §1

[10] = compound: FC(F)(F)C(F)(F)C(F)(F)C(F)(F)C(F)(F)CCI [1-Iodo-1H,1H,2H,2H-perfluoroheptane]; conditions: 2200 nM; in DMSO
Procedure: as §1

Row | Test System | level (log10) [1] | level (log10) (Tetrafluorosuccinic acid) | level (log10) [2] | level (log10) ([3]; 740 nM) | level (log10) ([3]; 2200 nM) | level (log10) ([3]; 6700 nM) | level (log10) ([3]; 20000 nM) | level (log10) (Perfluoropinacol; 2200 nM) | level (log10) (Perfluoropinacol; 6700 nM) | level (log10) (Perfluoropinacol; 20000 nM) | level (log10) (Nonafluoropentanamide) | level (log10) [4] | level (log10) [5] | level (log10) [6] | level (log10) ([7]; 2200 nM) | level (log10) ([7]; 6700 nM) | level (log10) ([7]; 20000 nM) | level (log10) ([8]; 2200 nM) | level (log10) ([8]; 6700 nM) | level (log10) ([8]; 20000 nM) | level (log10) ([8]; 60000 nM) | level (log10) ([9]; 740 nM) | level (log10) ([9]; 2200 nM) | level (log10) (Octafluoroadipamide) | level (log10) [10]
1 | BE3C:CXCL9/MIG | 0.0025 ± 0.0035 | -0.012 ± 0.0042 | -0.011 ± 0.0042 | 0.0145 ± 0.0035 | 0.016 | 0.009 ± 0.013 | 0.008 ± 0.0071 | 0 ± 0.0099 | -0.0045 ± 0.015 | 0.002 ± 0.0071 | 0.008 ± 0.013 | -0.001 ± 0.0014 | 0.001 ± 0.0028 | 0.005 ± 0.0014 | -0.006 ± 0.013 | -0.0015 ± 0.00071 | -0.047 | -0.004 ± 0.0014 | -0.005 ± 0.0014 | -0.004 ± 0.0042 | 0.0015 ± 0.011 | -0.0005 ± 0.026 | -0.0155 ± 0.026 | -0.0005 ± 0.011 | -0.0005 ± 0.0021
2 | KF3CT:CD54/ICAM-1 | -0.0015 ± 0.0021 | -0.0035 ± 0.036 | -0.025 ± 0.0028 | -0.004 ± 0.0099 | -0.0145 ± 0.012 | -0.01 ± 0.0042 | -0.0175 ± 0.0021 | -0.005 ± 0.0057 | 0.012 ± 0.0099 | 0.0185 ± 0.015 | -0.0055 ± 0.0021 | -0.0175 ± 0.00071 | 0.0005 ± 0.0021 | -0.0125 ± 0.013 | -0.021 ± 0.0057 | -0.0175 ± 0.00071 | -0.039 ± 0.0014 | -0.033 ± 0.0042 | -0.0095 ± 0.0064 | -0.0265 ± 0.0035 | -0.037 ± 0.0071 | -0.01 ± 0.0071 | -0.009 ± 0.011 | -0.007 ± 0.023 | 0.02 ± 0.016
3 | 3C:CXCL8/IL-8 | -0.0025 ± 0.061 | -0.011 ± 0.0085 | 0.0565 ± 0.019 | 0.0315 ± 0.013 | 0.0185 ± 0.042 | 0.0105 ± 0.03 | 0.054 ± 0.086 | 0.003 ± 0.035 | 0.0215 ± 0.012 | -0.0255 ± 0.026 | 0.007 ± 0.035 | 0.008 ± 0.089 | 0.029 ± 0.037 | 0.02 ± 0.062 | -0.0005 ± 0.029 | 0.005 ± 0.037 | 0.0235 ± 0.063 | 0.01 ± 0.1 | -0.034 ± 0.055 | -0.0325 ± 0.053 | 0.06 ± 0.0085 | 0.011 ± 0.047 | -0.0135 ± 0.025 | 0.0325 ± 0.11 | -0.0005 ± 0.013
4 | lMphg:CCL2/MCP-1 | 0.0115 ± 0.042 | 0.0055 ± 0.026 | -0.008 ± 0.041 | 0.001 ± 0.04 | 0.0035 ± 0.036 | 0.014 ± 0.0099 | 0.0175 ± 0.037 | 0.0235 ± 0.052 | 0.0265 ± 0.028 | -0.148 ± 0.0014 | 0.0005 ± 0.0064 | 0 ± 0.0014 | -0.0215 ± 0.012 | -0.0075 ± 0.015 | 0.0045 ± 0.046 | 0.008 ± 0.047 | 0.0025 ± 0.015 | -0.001 ± 0.0071 | -0.0195 ± 0.012 | -0.005 ± 0.0099 | 0.027 ± 0.025 | 0.013 ± 0.041 | -0.01 ± 0.023 | -0.004 ± 0.03 | -0.019 ± 0.033
5 | BF4T:CD90 | -0.0085 ± 0.016 | -0.0085 ± 0.0092 | -0.011 ± 0.0099 | 0.004 ± 0.021 | 0.0065 ± 0.00071 | 0.011 | 0 ± 0.0085 | -0.0015 ± 0.0092 | -0.015 ± 0.017 | -0.024 ± 0.0071 | -0.0005 ± 0.0021 | -0.0105 ± 0.0064 | 0.005 ± 0.0099 | 0.006 ± 0.014 | -0.032 ± 0.024 | -0.034 ± 0.013 | -0.0285 ± 0.005 | -0.009 ± 0.013 | -0.029 ± 0.017 | -0.028 ± 0.0085 | -0.031 ± 0.0042 | 0.001 ± 0.0028 | -0.016 ± 0.0014 | 0.0005 ± 0.0078 | 0.0015 ± 0.011
6 | BE3C:SRB | 0.0005 ± 0.0021 | 0.004 | 0.014 ± 0.017 | 0.0025 ± 0.0035 | -0.005 ± 0.0099 | 0.009 ± 0.0099 | 0.0065 ± 0.016 | 0.0105 ± 0.023 | -0.0115 ± 0.0035 | -0.0285 ± 0.00071 | 0 ± 0.0057 | 0.014 ± 0.017 | 0.008 ± 0.0057 | -0.0015 ± 0.0064 | 0.0135 ± 0.018 | -0.0045 ± 0.0064 | -0.0805 ± 0.005 | 0.0115 ± 0.013 | -0.005 ± 0.0099 | -0.001 ± 0.0028 | 0.0055 ± 0.011 | 0.0105 ± 0.011 | -0.0035 ± 0.0021 | 0.011 ± 0.021 | -0.008 ± 0.0014
7 | HDF3CGF:TIMP-2 | 0.018 ± 0.04 | -0.0585 ± 0.03 | 0.018 ± 0.051 | -0.0285 ± 0.033 | 0.001 ± 0.025 | 0.0075 ± 0.026 | -0.0295 ± 0.019 | -0.016 ± 0.017 | -0.0625 ± 0.005 | -0.126 ± 0.0021 | -0.041 ± 0.035 | 0.0075 ± 0.074 | -0.02 ± 0.099 | -0.032 ± 0.025 | -0.009 ± 0.051 | -0.0645 ± 0.04 | -0.146 ± 0.029 | 0.0215 ± 0.076 | -0.021 ± 0.0099 | -0.0205 ± 0.032 | 0.0245 ± 0.029 | -0.028 ± 0.016 | -0.03 ± 0.0099 | -0.0815 ± 0.15 | -0.0105 ± 0.049
8 | SAg:CD38 | -0.01 ± 0.016 | 0.0135 ± 0.021 | 0.006 ± 0.023 | -0.004 | -0.028 ± 0.0014 | -0.011 ± 0.016 | -0.0055 ± 0.015 | -0.0075 ± 0.0035 | -0.012 ± 0.021 | -0.113 ± 0.023 | -0.018 ± 0.065 | -0.0045 ± 0.044 | 0.034 ± 0.064 | 0.0685 ± 0.047 | -0.009 ± 0.031 | -0.02 ± 0.021 | -0.0315 ± 0.028 | 0.002 ± 0.047 | -0.0315 ± 0.012 | -0.022 ± 0.04 | -0.0505 ± 0.032 | 0.011 ± 0.027 | -0.012 ± 0.02 | -0.0115 ± 0.0021 | 0.0015 ± 0.015
9 | CASM3C:CXCL8/IL-8 | 0.0025 ± 0.022 | -0.005 ± 0.011 | 0.009 ± 0.0085 | 0.0115 ± 0.019 | 0.002 ± 0.016 | 0.005 ± 0.037 | 0.019 ± 0.028 | -0.0105 ± 0.0078 | 0.004 ± 0.011 | 0.029 | -0.0145 ± 0.0078 | -0.003 ± 0.028 | 0.0085 ± 0.022 | -0.0175 ± 0.018 | -0.0155 ± 0.0064 | 0.0045 ± 0.00071 | 0.0175 ± 0.016 | 0.004 ± 0.0085 | 0.007 ± 0.0042 | -0.016 ± 0.011 | 0.0185 ± 0.019 | 0.0015 ± 0.018 | -0.005 ± 0.024 | -0.008 ± 0.037 | 0.001 ± 0.0085
10 | KF3CT:TIMP-2 | 0.0035 ± 0.049 | 0.0225 ± 0.05 | 0.008 ± 0.0099 | -0.0225 ± 0.0078 | -0.035 ± 0.054 | -0.016 ± 0.03 | -0.041 ± 0.052 | 0 ± 0.0085 | 0.013 ± 0.0085 | 0.0745 ± 0.0064 | -0.005 ± 0.027 | 0.0005 ± 0.0064 | -0.021 ± 0.0085 | 0.001 ± 0.0042 | -0.029 ± 0.041 | -0.0205 ± 0.0021 | -0.0015 ± 0.0021 | -0.0065 ± 0.059 | -0.029 ± 0.0085 | -0.0035 ± 0.012 | 0.0015 ± 0.012 | -0.006 ± 0.055 | -0.005 ± 0.0014 | 0.001 ± 0.028 | -0.01 ± 0.014
